Results of single-concentration screens

The values are deposited in ChEMBL (CHEMBL3988442, “University of Dundee, Small-Polar-MMV Screening Library” (2021)).

Mtb cholesterol medium: 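Phenotypic screen: M. tuberculosis growth, cholesterol and DPPC medium, 4 days; the read-out is not stated. Compounds at 50 µM. Direction is inferred from retests: higher values go with more growth inhibition. Of about 69,000 compounds tested this way, about 370 (0.54%) reached 50% or more in at least one test.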
Mtb glucose medium: 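Phenotypic screen: M. tuberculosis growth, glucose 7H9 medium, 3 days; the read-out is not stated. Compounds at 50 µM. Higher reads as more growth inhibition (inferred: compounds with an IC50 in retests scored well above the rest). Size under these conditions: about 69,000 compounds, about 760 of them at 50% or above in at least one test.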

The filed quantity is “Percent Effect” (%).
The controls that fix the scale are not given in the record; negative values are as filed.
Compounds were drawn at random from those tested, without regard to their results.
Two or more numbers in one place are separate tests of the same structure; such repeats can differ widely.

SMILES	Mtb cholesterol medium	Mtb glucose medium
CCOCC(=O)NC1(c2cccc(Cl)c2)CC1	23.08	11.38 & 33
O=C(CCn1ccnc1)N1CCC(c2nnc(-c3ccccn3)o2)CC1	-18.98 & -19.42	-20.17
COc1ccc(C(=O)CCc2nc(C3CC3)no2)cc1F	24.55	14.65
CC(C)c1cc(NCC(O)c2ccc(F)cc2)n2nccc2n1 (stereo unspecified)	27.45	43.4
CCCN(CC)Cc1ccc(C(=O)NCC2COCCO2)c(=O)[nH]1 (stereo unspecified)	-6.055	6.683
O=C(O)C(F)(F)F.O=C(O)C(F)(F)F.[H][C@@]12COC[C@]1(CNC(=O)c1cccn1C)CN(Cc1cccc(C)n1)C2	-28.39	-18.92
CC(=O)NCCNC(=O)Nc1cccc(Cl)c1SC(F)F	0.4032	-0.8821 & 4.3
O=C(c1ccc[nH]1)N1CCCC1c1nc(-c2ccccc2)n[nH]1 (stereo unspecified)	-15.92	32.78
CCN(CC)C(=O)c1ccc(COc2ccccc2C#N)o1	-11.98	17.7
CN(C)C1(CNC(=O)Cc2ccc(F)cc2)CCOCC1	-3.178	3.077
CC(CN(C)C)Nc1nc(O)cc(Cc2ccccc2F)n1 (stereo unspecified)	-5.549 & -4.127	-11.49
COc1ncnc(N(C)C)c1NC(=O)Cc1c[nH]c2ccc(F)cc12	11.53	9.554
Cc1noc(C(C)C)c1C(=O)NCC(c1ccccc1)N(C)C (stereo unspecified)	-14.19	0.07749 & 31.6
CCN1CCN(Cc2ccnc(-c3cccnc3)n2)CC1.O=C(O)CC(O)(CC(=O)O)C(=O)O	0.0259	5.883
COCc1noc(C2(c3ccc(Cl)cc3)CCOCC2)n1	2.84	-2.792 & 1.716
Cl.Clc1ccc(-c2ccc(C3CNCCO3)nc2)cc1 (stereo unspecified)	41.19	31.94
Cc1cc(CC(C)NC(=O)COc2ccc(F)cc2F)[nH]n1 (stereo unspecified)	-7.37	10.15 & 2.995
CCc1nc2n(n1)CC(NCc1nc3ccccc3nc1C)CC2 (stereo unspecified)	-23.1	-2.457 & -2.148
O=C(NC1CCCN(c2ccc(OC(F)F)cc2)C1)c1ccon1 (stereo unspecified)	-14.44	0.6084
Cc1noc(C2CCC3(CCN(C(=O)C4CCOCC4)CC3)O2)n1 (stereo unspecified)	-6.225	-10.71
O=c1[nH]cc(Nc2ccc(Cl)cc2)c(=O)[nH]1	-25.91	-14.82 & -34.33
CCc1nc(CN(C(C)=O)C2CCN(CCc3ccccn3)C2)no1 (stereo unspecified)	14.05	-10.07
O=C(c1cc(CC2(NCC3CCCCC3)COC2)no1)N1CCCCC1	-6.57	4.083 & -0.1135
O=C(C1CCCCC1)N1CCC(c2n[nH]c3nccnc23)CC1	-20.99	4.526
Cc1c(CC(=O)N2CCN(CC(F)(F)F)CC2)nnn1-c1ccccc1	-24.32	-17.51
CC(=O)C1(c2ccccc2)CCN(C(=O)CC2CNCCO2)CC1 (stereo unspecified)	-12.37	-6.372
Cc1c(C(=O)N2CC(Cc3nccc4ccn(C)c34)C2)cnn1C	-11.21	2.015
Cc1nnc(CN(C)C2CCN(Cc3nc4ccccc4n3C)C2)o1 (stereo unspecified)	4.674	2.165
N#Cc1cc(C#N)c(SCC(=O)Nc2ccc(F)cc2)nc1N	17.93	31.73
Fc1cccc(CN2CCOC3(COCCN(CC4CC4)C3)C2)c1.O=C(O)C(F)(F)F.O=C(O)C(F)(F)F (stereo unspecified)	11.78	22.19
CCN1CCc2onc(CNc3ncccn3)c2C1	-22.23	-5.877 & -25.88
CC(C)(C)NC(=O)N1CCN(Cc2cccnc2)CC1	-3.934	2.377 & -1.833
COc1c(C)cnc(CNC(=O)c2cc(C)nc3onc(C)c23)c1C	-8.321	-2.245
COc1ccccc1OC1CN(c2ccncc2)C1	13.02	3.908 & 17.86
CCc1ccc(C(=O)N2CCCC3(CCCC(=O)N3C)C2)cc1 (stereo unspecified)	-3.697 & 2.605	-3.421
O=C(c1ccsc1)N1CCc2nnc(COc3cncnc3)n2CC1	-60.38	-27.9 & -15.24
COCCCN1CCC(NC(=O)C(C)C)CC1	-1.874	-45.48
CN(CCCc1cc(-c2ccc(F)cc2)n(C)n1)CC(=O)NC(N)=O	5.456	31.65
CC(CCc1ccc(O)cc1)NC1CCN(C(=O)C(C)C)CC1 (stereo unspecified)	1.463	11.11
O=C(NCCCn1ccnc1)NCC(c1ccco1)N1CCCCC1 (stereo unspecified)	-16.22	-12.34

The first 3 entries again:

SMILES,Mtb cholesterol medium,Mtb glucose medium
CCOCC(=O)NC1(c2cccc(Cl)c2)CC1,23.08,11.38 & 33
O=C(CCn1ccnc1)N1CCC(c2nnc(-c3ccccn3)o2)CC1,-18.98 & -19.42,-20.17
COc1ccc(C(=O)CCc2nc(C3CC3)no2)cc1F,24.55,14.65